This is one part of the list.
Experiments:
Assay in all cases: glycan array binding signal (z-score within array); higher = stronger binding
Settings in all cases: glycan notation: IUPAC condensed, linker removed
[1] = biological target: Gal(b1-3)GlcNAc(b1-2)Man(a1-3)[GlcNAc(b1-4)][Gal(b1-3)GlcNAc(b1-2)Man(a1-6)]Man(b1-4)GlcNAc(b1-4)GlcNAc
Method in brief: (§1)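 Arrays were curated from the Consortium for Functional Glycomics database, 3228 in total, and kept only where the protein sequence was available. Binding is expressed as a within-array Z-score. This score was averaged across arrays of the same protein sequence at different concentrations or buffers and across linkers, and negative values can be read as non-binding.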

[2] = biological target: Gal(b1-3)GlcNAc(b1-2)[Gal(b1-3)GlcNAc(b1-6)]Man(a1-6)[Gal(b1-3)GlcNAc(b1-2)Man(a1-3)]Man(b1-4)GlcNAc(b1-4)GlcNAc
Method in brief: as §1

[3] = biological target: Gal(b1-3)GlcNAc(b1-3)Gal(b1-3)GlcNAc
Method in brief: as §1

[4] = biological target: Gal(b1-3)GlcNAc(b1-3)Gal(b1-4)Glc
Method in brief: as §1

[5] = biological target: Gal(b1-3)GlcNAc(b1-3)Gal(b1-4)GlcNAc
Method in brief: as §1

[6] = biological target: Gal(b1-3)GlcNAc(b1-3)Gal(b1-4)GlcNAc(b1-2)Man(a1-3)[Gal(b1-3)GlcNAc(b1-3)Gal(b1-4)GlcNAc(b1-2)Man(a1-6)]Man(b1-4)GlcNAc(b1-4)GlcNAc
Method in brief: as §1

[7] = biological target: Gal(b1-3)GlcNAc(b1-3)Gal(b1-4)GlcNAc(b1-2)[Gal(b1-3)GlcNAc(b1-3)Gal(b1-4)GlcNAc(b1-6)]Man(a1-6)[Gal(b1-3)GlcNAc(b1-3)Gal(b1-4)GlcNAc(b1-2)Man(a1-3)]Man(b1-4)GlcNAc(b1-4)[Fuc(a1-6)]GlcNAc
Method in brief: as §1

[8] = biological target: Gal(b1-3)GlcNAc(b1-3)Gal(b1-4)GlcNAc(b1-3)Gal(b1-4)GlcNAc(b1-2)[Gal(b1-3)GlcNAc(b1-3)Gal(b1-4)GlcNAc(b1-3)Gal(b1-4)GlcNAc(b1-6)]Man(a1-6)[Gal(b1-3)GlcNAc(b1-3)Gal(b1-4)GlcNAc(b1-3)Gal(b1-4)GlcNAc(b1-2)Man(a1-3)]Man(b1-4)GlcNAc(b1-4)[Fuc(a1-6)]GlcNAc
Method in brief: as §1

[9] = biological target: Gal(b1-3)GlcNAc(b1-3)Gal(b1-4)GlcNAc(b1-6)[Gal(b1-3)GlcNAc(b1-3)]Gal(b1-4)Glc
Method in brief: as §1

[10] = biological target: Gal(b1-3)GlcNAc(b1-3)Gal(b1-4)[Fuc(a1-3)]GlcNAc(b1-6)[Gal(b1-3)GlcNAc(b1-3)]Gal(b1-4)Glc
Method in brief: as §1

[11] = biological target: Gal(b1-3)GlcNAc(b1-3)GalNAc
Method in brief: as §1

[12] = biological target: Gal(b1-3)GlcNAc(b1-6)Gal(b1-4)GlcNAc
Method in brief: as §1

[13] = biological target: Gal(b1-3)GlcNAc(b1-6)GalNAc
Method in brief: as §1

[14] = biological target: Gal(b1-3)GlcNAc(b1-6)[Gal(b1-3)]GalNAc
Method in brief: as §1

Gal(b1-3)GlcNAc6S = biological target: Gal(b1-3)GlcNAc6S
Method in brief: as §1

[15] = biological target: Gal(b1-3)[Fuc(a1-4)]GlcNAc
Method in brief: as §1

[16] = biological target: Gal(b1-3)[Fuc(a1-4)]GlcNAc(b1-2)Man
Method in brief: as §1

[17] = biological target: Gal(b1-3)[Fuc(a1-4)]GlcNAc(b1-2)Man(a1-3)[Gal(b1-3)[Fuc(a1-4)]GlcNAc(b1-2)Man(a1-6)]Man(b1-4)GlcNAc(b1-4)[Fuc(a1-6)]GlcNAc
Method in brief: as §1

[18] = biological target: Gal(b1-3)[Fuc(a1-4)]GlcNAc(b1-3)Gal(b1-3)[Fuc(a1-4)]GlcNAc
Method in brief: as §1

[19] = biological target: Gal(b1-3)[Fuc(a1-4)]GlcNAc(b1-3)Gal(b1-4)GlcNAc
Method in brief: as §1

[20] = biological target: Gal(b1-3)[Fuc(a1-4)]GlcNAc(b1-3)Gal(b1-4)[Fuc(a1-3)]GlcNAc
Method in brief: as §1

[21] = biological target: Gal(b1-3)[Fuc(a1-4)]GlcNAc(b1-6)GalNAc
Method in brief: as §1

[22] = biological target: Gal(b1-3)[GlcNAc(b1-6)]GalNAc
Method in brief: as §1

[23] = biological target: Gal(b1-3)[Neu5Ac(a2-6)]GalNAc
Method in brief: as §1

[24] = biological target: Gal(b1-3)[Neu5Ac(a2-6)]GlcNAc(b1-4)Gal(b1-4)Glc
Method in brief: as §1

[25] = biological target: Gal(b1-3)[Neu5Ac(b2-6)]GalNAc
Method in brief: as §1

Gal(b1-4)Gal = biological target: Gal(b1-4)Gal
Method in brief: as §1

[26] = biological target: Gal(b1-4)GalNAc(a1-3)[Fuc(a1-2)]Gal(b1-4)GlcNAc
Method in brief: as §1

[27] = biological target: Gal(b1-4)GalNAc(b1-3)[Fuc(a1-2)]Gal(b1-4)GlcNAc
Method in brief: as §1

Gal(b1-4)Glc = biological target: Gal(b1-4)Glc
Method in brief: as §1

B1: Blon0732mut (Bifidobacterium longum) (protein)
chain: MPTSEHKADDATRHLTLIPAPVTLEYTHGTALIGPLVTIEDADQSWETLPIEQLSDELRHRYGVTVLRRRTHGTVISLGLDSRLAHDEYTLDVSESEGIRVRGGGESGLRYGLQTLRQIIGQTSRAIPCLHIQDKPAFAVRAYSLDVTRGRVPTMEFLTWFVDQLALYKYNQFQLYVEHAFAFVELSEAWRGTDPLTAADITYLDEYCARRGIELVPSLATFGHMYMNLRTREHRGLGEFPEDADRPFSFIERMEHHTLNAADPKAHDFASRLIEEYAPLFRSKSFNIGGNETFDLGRGRSAQDAPEAGRDELYAGFVRDLCETLARHGRQPMLWADIALESPRTMDLLPGDITMLNWMYEPQIDESKIQTIATQGRRQFVCPAVRAWSRFFPDYAGAWLNTYHMALAGTKYDAEGMVVTDWGDYGHVNDPRLSVPGLCYGAQNAWNPIEIDAHEMNRRISALVYGDESGRIMDCLARIDSDGVSFPWDLAVQVLELEYGSGTGALNMDVAACMERSSGGKLTLDRTLGCDDARRRMLQWNRERIERRRDCDQVLRDCGDAFAGLDKGGLTAEFLSVMLDGQRLFNELGEELLALADGKDVGSGANRLAADLELWFERYRAQWLSVGRHAELARIAHVVWSLADILRRGAL
[1]
  glycan array binding signal (z-score): 1.08
[2]
  glycan array binding signal (z-score): -0.481
[3]
  glycan array binding signal (z-score): -0.1
[4]
  glycan array binding signal (z-score): -1.13
[5]
  glycan array binding signal (z-score): -0.644
[6]
  glycan array binding signal (z-score): -0.152
[7]
  glycan array binding signal (z-score): 0.19
[8]
  glycan array binding signal (z-score): 0.698
[9]
  glycan array binding signal (z-score): -1.13
[10]
  glycan array binding signal (z-score): -0.338
[11]
  glycan array binding signal (z-score): -1.16
[12]
  glycan array binding signal (z-score): -0.856
[13]
  glycan array binding signal (z-score): -1.01
[14]
  glycan array binding signal (z-score): 0.168
Gal(b1-3)GlcNAc6S
  glycan array binding signal (z-score): 0.096
[15]
  glycan array binding signal (z-score): 0.017
[16]
  glycan array binding signal (z-score): -0.411
[17]
  glycan array binding signal (z-score): 0.217
[18]
  glycan array binding signal (z-score): -0.751
[19]
  glycan array binding signal (z-score): 1.61
[20]
  glycan array binding signal (z-score): -1.09
[21]
  glycan array binding signal (z-score): -0.524
[22]
  glycan array binding signal (z-score): 0.638
[23]
  glycan array binding signal (z-score): -0.661
[24]
  glycan array binding signal (z-score): -0.334
[25]
  glycan array binding signal (z-score): -0.541
Gal(b1-4)Gal
  glycan array binding signal (z-score): -0.419
[26]
  glycan array binding signal (z-score): 0.345
[27]
  glycan array binding signal (z-score): -0.827
Gal(b1-4)Glc
  glycan array binding signal (z-score): -0.325

— the supplement of paper PMC8728848
